Results as given in PubChem BioAssay AID652015 (National Center for Advancing Translational Sciences (NCATS), 2013).
This list was built around the results that the source calls inconclusive (neither active nor inactive); the mix of calls is not that of the screen. Potencies of inconclusive entries are doubtful fits and often do not repeat. Activity calls are given as the source filed them. The call rests on the fitted dose curve; in most records, active means well fitted inhibition curve with a large enough effect; inconclusive means small, poorly fitted or top-dose-only effect; inactive means no such curve, though single readings can be large or run the other way.

The chains behind the UniProt entries cited, without tags or fusion partners.
UniProt P27652, whole entry, looked up: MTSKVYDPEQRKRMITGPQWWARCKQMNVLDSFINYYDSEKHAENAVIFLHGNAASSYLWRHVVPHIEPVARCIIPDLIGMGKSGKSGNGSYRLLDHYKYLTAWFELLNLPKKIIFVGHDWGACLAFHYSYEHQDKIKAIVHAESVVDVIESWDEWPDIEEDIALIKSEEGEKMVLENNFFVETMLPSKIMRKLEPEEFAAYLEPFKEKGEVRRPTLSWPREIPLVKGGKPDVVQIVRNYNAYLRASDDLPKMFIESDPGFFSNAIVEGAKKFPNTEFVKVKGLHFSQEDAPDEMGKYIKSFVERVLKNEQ

target: Coelenterazine h 2-monooxygenase (Renilla reniformis) (UniProt P27652); test: qHTS Assay for Inhibitors of Sea Pansy Luciferase from the GSK Published Protein Kinase Inhibitor Set; details: purified Renilla luciferase, luminescence; series mostly up to 57.5 µM
Source text: FLuc (firefly luciferase) is the prototypical bioluminescent reporter gene from Photinus pyralis.[1] The enzyme catalyzes the oxidation luciferin via luciferin-AMP to produce light. FLuc is used in cell-based reporter gene-based assays for screening small molecule chemical libraries. However, small molecule luciferase inhibitors present in most large chemical libraries are often enriched in the output of high throughput screens using this reporter sometimes complicating interpretation and candidate selection.
RLuc is a bioluminescent reporter gene luciferase from Renilla reniformis, also known as the sea pansy. RLuc uses the luciferin substrate coelenterazine. RLuc is often used in combination with the nonhomologous luciferase FLuc (firefly luciferease) as a trasfection or pathway normalization control. Recently, non-homologous reporters have been described for high throughput screening 'coincidence' reporter gene strategies.
1. Fan F, Wood KV (2007) Bioluminescent assays for high-throughput screening. Assay Drug Dev Technol 5: 127-136.
2. Thorne N, Inglese J, Auld DS (2010) Illuminating insights into firefly luciferase and other bioluminescent reporters used in chemical biology. Chem Biol 17: 646-657.
3. […] Chem Biol 19: 1060-1072.
4. Michelini E, Cevenini L, Mezzanotte L, Coppa A, Roda A (2010) Cell-based assays: fuelling drug discovery. Anal Bioanal Chem 398: 227-238.
5. Cheng KC, Inglese J (2012) A coincidence reporter-gene system for high-throughput screening. Nat Methods 9: 937.
Biochemical renilla luciferase enzyme assay
NCGC Assay Protocol Summary:
Reagents: 50mM Tris acetate, pH 7.5; 100uM NaCl; 5uM Coelenterazine H (Promega #S2011); 0.01% Tween-20; 0.05% BSA; 1nM R. reniformis luciferase (Nanolight Technologies #314)
Control compounds used were a known renilla luciferase inhibitor BTS (Tocris Biosciences #1870) and DMSO.
Three microliters containing renilla luciferase substrate in buffer (final concentrations: 50mM Tris acetate, pH 7.5, 100uM NaCl, 0.01% Tween-20, 0.05% BSA, 5uM coelenterazine h) are dispensed into each well of a Greiner white, solid-bottom 1536-well format plate using a flying reagent dispenser (FRD). These assay plates were then treated with 23nL of compound or DMSO using a Kalypsys pin tool, which allows for delivery of a 7-point interplate titration of each compound to the assay plate (quantitative HTS), with final compound concentrations ranging from approximately 60uM to 300pM. One microliter of renilla luciferase in 50mM Tris-acetate buffer was then delivered by FRD to each well for a final enzyme concentration of 1nM. Luciferase activity was then measured using an Envision plate reader (PerkinElmer), with an average incubation time of 2 min.
Potency means the concentration at half of the fitted maximal effect.

| SMILES | Potency |
| --- | --- |
| COc1cc(C=NNc2ncnc3c2cnn3Cc2ccccc2)ccc1O | inactive |
| NS(=O)(=O)c1ccc(Nc2cc(-c3ccc(O)c(F)c3)[nH]n2)cc1 | inconclusive: 36.6 µM [inhibitor, single point] |
| Cc1ccc(C(=O)NC2CCCCC2)cc1-c1ccc(C(=O)NCC2CC2)cc1 | inactive |
| NS(=O)(=O)c1ccc(N=Nc2c(O)[nH]c3ccc(C(=O)NCCCn4ccnc4)cc23)cc1 | inconclusive: 18.3 µM [inhibitor, partial curve] |
| CCn1c(-c2nonc2N)nc2c(C#CC(C)(C)O)ncc(OCC3CCNCC3)c21 | inactive |
| CCc1ccc(Oc2nccc(-c3c(-c4ccc(F)cc4)ncn3C3CCNCC3)n2)cc1 | inactive |
| CC(C)c1ccc(-c2cc(-c3cn[nH]c3-c3ccccn3)ccn2)cc1 | inconclusive: 1.46 µM [inhibitor, partial curve, poor fit] |
| Fc1ccc(-c2ncn(C3CCNCC3)c2-c2ccnc(Oc3cccc(C(F)(F)F)c3)n2)cc1 | inactive |
| CCn1c(-c2nonc2N)nc2c(C#CC(C)(C)O)nc(OC(CN)c3ccccc3)cc21 (stereo not given) | inconclusive: 29.1 µM [inhibitor, partial curve] |
| COc1ccccc1-c1cc(C=C2C(=O)Nc3ncc(Br)cc32)cc(Br)c1O | active: 8.19 µM |
| O=C(OC1CNC(C#Cc2cc3ncnc(Nc4ccc5c(cnn5Cc5ccccc5)c4)c3s2)C1)N1CCOCC1 (stereo not given) | inactive |
| NS(=O)(=O)c1ccc(N=Nc2c(O)[nH]c3ccc(C(=O)NCCc4cnc[nH]4)cc23)cc1 | inconclusive: 16.3 µM [inhibitor, partial curve] |
| CN1CCC(C(=O)Nc2n[nH]c3nc(-c4ccc(O)cc4)c(Br)cc23)CC1 | inconclusive: 32.6 µM [inhibitor, partial curve, poor fit] and inactive |
| ON=C1CCc2cc(-c3nc(C4CCNCC4)[nH]c3-c3ccncc3)ccc21 | inactive |
| CCn1c(-c2nonc2N)nc2c(C#CC(C)(C)O)nc(OCC(N)c3ccccc3)cc21 (stereo not given) | inconclusive: 29.1 µM [inhibitor, partial curve, poor fit] |
| CC(=O)Nc1cccc(C#Cc2cncnc2Nc2ccc(OCc3cccc(F)c3)c(Cl)c2)n1 | inactive |
| COc1cc(N2CCN(C(C)C)CC2)ccc1Nc1nc(Nc2cccc3ncccc23)c2cc[nH]c2n1 | inconclusive: 18.3 µM [inhibitor, partial curve] |
| CC(Oc1cc(-n2cnc3ccc(OCC4CCN(C)CC4)cc32)sc1C(N)=O)c1ccccc1Cl (stereo not given) | inconclusive: 20.6 µM [inhibitor, partial curve] |
| COc1cccc(C=NNc2ncnc3c2cnn3-c2cccc(OC)c2)c1 | inactive |
| N#Cc1c(NC(=O)c2ccc(F)cc2)sc2c1CCCC2 | inactive |

| SMILES | Potency |
| --- | --- |
| CCS(=O)(=O)c1ccc(OC)c(Nc2ncc(-c3cccc(OC)c3)o2)c1 | inconclusive: 18.3 µM [inhibitor, partial curve] |
| COc1cc2ncn(-c3cc(OC(C)c4ccccc4Cl)c(C(N)=O)s3)c2cc1OC (stereo not given) | inconclusive: 3.66 µM [inhibitor, partial curve, poor fit] |
| COc1cc(Nc2ncc3c(C)nc(-c4cccc(C(F)(F)F)c4)n3n2)cc(OC)c1OC | inactive |
| COc1cc(Nc2nccc(Nc3ccc4c(C)[nH]nc4c3)n2)cc(OC)c1OC | inconclusive: 36.6 µM [inhibitor, single point] |
| Cc1cc(Cl)cc2c(N=Nc3ccc(S(N)(=O)=O)cc3)c(O)[nH]c12 | inconclusive: 29.1 µM [inhibitor, partial curve, poor fit] |
| COC(=O)Nc1nc2ccc(Oc3ccc(NC(=O)Nc4cccc(C(=O)O)c4)cc3)cc2[nH]1 | inconclusive: 41.1 µM [inhibitor, single point] |
| Cc1cccc(Nc2ncc(-c3ccccc3)o2)c1 | inactive |
| FC(F)(F)c1cccc(-c2nn3ncccc3c2-c2ccnc(Nc3ccc4c(c3)OCCO4)n2)c1 | inactive |
| CCS(=O)(=O)c1ccc(OC)c(Nc2nccc(N(C)c3ccc4c(C)[nH]nc4c3)n2)c1 | inconclusive: 32.6 µM [inhibitor, partial curve, poor fit] |
| Cc1cccc2c(N=Nc3ccc(S(N)(=O)=O)cc3)c(O)[nH]c12 | inconclusive: 18.3 µM [inhibitor, partial curve, poor fit] |
| Fc1ccc(-c2ncn(C3CCNCC3)c2-c2ccnc(Oc3ccccc3)n2)cc1 | inconclusive: 18.3 µM [inhibitor, partial curve, poor fit] |
| COc1ccc(-c2coc3ncnc(N)c23)cc1 | inconclusive: 20.6 µM [inhibitor, partial curve, poor fit] |
| CNC(=O)c1cncc(C=Cc2c(Cl)cccc2Cl)c1 | inconclusive: 23.1 µM [inhibitor, partial curve, poor fit] |
| COc1cc(N2CCN(C(C)C)CC2)ccc1Nc1nc(Nc2ccc(F)cc2C(N)=O)c2cc[nH]c2n1 | inconclusive: 20.6 µM [inhibitor, partial curve] |
| COc1cc(C)c(NC(=O)CN(C)C)cc1Nc1nc(Nc2cccc(F)c2C(N)=O)c2cc[nH]c2n1 | inactive |
| O=S1CCN(Cc2ccc(-c3ccc4ncnc(Nc5ccc(OCc6ccccc6)c(Cl)c5)c4c3)o2)CC1 | inactive |
| CN(C)c1cc2c(Nc3ccc4c(cnn4Cc4ccccc4)c3)ncnc2cn1 | inconclusive: 23.1 µM [inhibitor, partial curve] |
| COc1cccc(COc2cc(-n3cnc4ccccc43)sc2C(N)=O)c1 | inconclusive: 20.6 µM [inhibitor, partial curve] |
| O=C1NC(=O)C(c2ccccc2Cl)=C1Nc1cc(Cl)c(O)c(Cl)c1 | inconclusive: 36.6 µM [inhibitor, single point] |
| Fc1ccc(-c2c(-c3ccncc3)nc3n2CCS3)cc1 | inactive |

9 of the compounds above, in CSV form.
SMILES,Potency
CC(=O)Nc1cccc(C#Cc2cncnc2Nc2ccc(OCc3cccc(F)c3)c(Cl)c2)n1,inactive
COc1cc(N2CCN(C(C)C)CC2)ccc1Nc1nc(Nc2cccc3ncccc23)c2cc[nH]c2n1,"inconclusive: 18.3 µM [inhibitor, partial curve]"
CC(Oc1cc(-n2cnc3ccc(OCC4CCN(C)CC4)cc32)sc1C(N)=O)c1ccccc1Cl (stereo not given),"inconclusive: 20.6 µM [inhibitor, partial curve]"
COc1cccc(C=NNc2ncnc3c2cnn3-c2cccc(OC)c2)c1,inactive
N#Cc1c(NC(=O)c2ccc(F)cc2)sc2c1CCCC2,inactive
CCS(=O)(=O)c1ccc(OC)c(Nc2ncc(-c3cccc(OC)c3)o2)c1,"inconclusive: 18.3 µM [inhibitor, partial curve]"
COc1cc2ncn(-c3cc(OC(C)c4ccccc4Cl)c(C(N)=O)s3)c2cc1OC (stereo not given),"inconclusive: 3.66 µM [inhibitor, partial curve, poor fit]"
COc1cc(Nc2ncc3c(C)nc(-c4cccc(C(F)(F)F)c4)n3n2)cc(OC)c1OC,inactive
COc1cc(Nc2nccc(Nc3ccc4c(C)[nH]nc4c3)n2)cc(OC)c1OC,"inconclusive: 36.6 µM [inhibitor, single point]"
